PubChem BioAssay AID686938 – Drosophila RNAi Screening Center, 2013

- Test: 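Knock-downs reducing store-operated calcium influx in Drosophila cells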 (primary screen)
- Cell system: Drosophila S2R+ cells
- Knock-down reagent: long dsRNA against Drosophila genes, about 0.25 µg dsRNA per well, roughly 10,000 cells
- Duration: 5 days of knock-down before the calcium assay
- Treatment: thapsigargin (SERCA pump blocker) to empty calcium stores; entry signal taken 4 min after adding it
- Detection: 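Per-well fluo-4 fluorescence in two replicates, unnormalised, measured in resting cells and 4 min after store depletion by the SERCA blocker thapsigargin; ratio of the two present in few wells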
- Scale: calcium entry signal: higher = stronger calcium signal after store depletion; entry to resting ratio: higher = more calcium entry relative to resting level; resting calcium signal: higher = higher resting calcium signal
- Rule for the call: 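Called when the plate z-score of the entry-to-rest ratio, mean of duplicates, falls below −3; wells with low overall dye signal (Fmax z below −2) or more than five off-targets excluded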
- Meaning of the calls: active = strongly reduced calcium entry; inactive = no strong reduction
In all, the deposit lists about 23,000 reagents; below is a random part of those with a known target gene and a result. In the full data, 75 (0.33%) were called active. 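Raw plate signals without normalisation; calls rest on plate z-scores that were not deposited; ratio present for only 364 wells.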 The numbers tell different reagents against one gene apart. The record does not give: the dose of the treatment.

no.	gene knocked down	reagent no.	calcium entry signal, replicate 1 (fluorescence units)	calcium entry signal, replicate 2 (fluorescence units)	entry to resting ratio	resting calcium signal, replicate 1 (fluorescence units)	resting calcium signal, replicate 2 (fluorescence units)	Outcome
1	CG11898	1	2.56e7	2.45e7		1.39e7	1.33e7	inactive
2	Gpb5	1	5.82e7	3.44e7		2.69e7	1.70e7	inactive
3	CG30122	1	4.38e7	3.76e7		2.18e7	1.81e7	inactive
4	CG30122	2	5.12e7	5.56e7		2.43e7	2.62e7	inactive
5	CG10591	1	3.66e7	2.45e7		2.56e7	1.04e7	inactive
6	CG4390	1	2.10e7	1.95e7		1.08e7	1.01e7	inactive
7	Pld3	1	3.14e7			1.60e7		inactive
8	CG14273	1	3.32e7	5.26e7		1.72e7	2.22e7	inactive
9	CG9825	1	4.28e7	4.19e7		2.11e7	1.90e7	inactive
10	CG31391	1	3.56e7	3.52e7		1.64e7	1.97e7	inactive
11	spartin	1	2.67e7	5.94e7		1.40e7	2.30e7	inactive
12	Pnn	1	4.33e7	3.76e7		2.11e7	2.00e7	inactive
13	Or59c	1	3.41e7	3.39e7		1.71e7	1.61e7	inactive
14	Rpt4R	1	3.15e7	3.98e7		1.63e7	1.89e7	inactive
15	Cog3	1	4.20e7			2.25e7		inactive
16	kuz	1	3.54e7	2.24e7		1.77e7	1.27e7	inactive
17	CG32448	1	4.13e7	3.38e7		2.27e7	1.62e7	inactive
18	CG32568	1	3.15e7	3.23e7		1.68e7	1.40e7	inactive
19	CG2616	1	4.19e7	3.13e7		2.16e7	1.60e7	inactive
20	csw	1	3.84e7	5.19e7	2.1	1.87e7	2.09e7	inactive
21	csw	2	3.80e7	2.62e7		2.12e7	1.30e7	inactive
22	Hesr	1	3.34e7	2.78e7		1.74e7	1.50e7	inactive
23	CG30289	1	3.11e7	7.23e7		1.49e7	3.15e7	inactive
24	alpha-Est3	1	2.77e7	2.67e7		1.23e7	1.28e7	inactive

An excerpt from the list above:
no.	gene knocked down	reagent no.	calcium entry signal, replicate 1 (fluorescence units)	calcium entry signal, replicate 2 (fluorescence units)	entry to resting ratio	resting calcium signal, replicate 1 (fluorescence units)	resting calcium signal, replicate 2 (fluorescence units)	Outcome
9	CG9825	1	4.28e7	4.19e7		2.11e7	1.90e7	inactive
10	CG31391	1	3.56e7	3.52e7		1.64e7	1.97e7	inactive
